This is one part of the list. The main result of the screen is listed elsewhere. These columns were measured beside it and carry no call. The list favours compounds with an active or inconclusive main result. Potencies come from curve fits of mixed quality, noted in brackets.
Assay: qHTS Assay to Find Inhibitors of Chronic Active B-Cell Receptor Signaling
Settings: ABC-DLBCL IkBa-CBG/CBR reporter, luminescence ratio (green luciferase fused to IkBa over red control in TMD8 lymphoma cells), 4 h
Outline: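 Cell line TMD8 (human ABC DLBCL), stably expressing tet-inducible CBG68-IkBa fusion and CBR; IMDM/0.5% FBS; cpd up to 46 uM; dox induction, 4 h, 37C/5% CO2; dual luminescence; green/red ratio; MG132 control.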

[1] = measured here: CBR red luminescence, cell number
[2] = measured here: IkBa-CBG green luminescence

| SMILES | AC50 [1] | AC50 [2] |
| --- | --- | --- |
| Cc1ccc2[nH]c(=O)c(CN(Cc3cccs3)C(=S)NCc3ccco3)cc2c1 | 7.31 µM [falling, partial curve] |  |
| COCCNC(=O)CSc1nc2cc3c(cc2c(=O)n1CCCC(=O)NCCc1ccc(OC)c(OC)c1)OCO3 | 4.47 µM [rising, full curve, poor fit] |  |
| O=C(COc1ccccc1[N+](=O)[O-])N(Cc1ccco1)C1CCS(=O)(=O)C1 (stereo not drawn) | 11.2 µM [falling, partial curve] |  |
| CC(=O)Nc1ccc(N=Nc2ccccc2)cc1 | 0.82 µM [rising, partial curve] |  |
| Cc1cc(CNC(=O)c2ccc3oc(C(C)C)nc3c2)nn1C | 1.12 µM [rising, full curve, poor fit] |  |
| CC(C)[C@H](NC(=O)c1ccccc1)C(=O)OCc1nc2scc(-c3ccccc3)c2c(=O)[nH]1 | 29.1 µM [falling, single point] |  |
| COC(=O)c1cc(C(=O)Nc2nc3ccccc3[nH]2)cc([N+](=O)[O-])c1 | 2.82 µM [falling, partial curve, poor fit] |  |
| CCCCCNc1nc(-c2ccccc2)cs1 | 16.4 µM [falling, single point] |  |
| Cc1ccc(C(=O)Oc2ccc(C(=O)COC(=O)C3CC(=O)N(Cc4ccco4)C3)cc2)cc1 (stereo not drawn) | 0.651 µM [rising, full curve, poor fit] |  |
| COc1cc(OC)cc(C(=O)NC(C(=O)N2CCc3ccccc3C2)C(C)C)c1 (stereo not drawn) | 1 µM [falling, full curve, poor fit] |  |
| CS(=O)(=O)N1N=C(c2ccc(Br)cc2)CC1c1cccs1 (stereo not drawn) | 0.517 µM [rising, full curve] |  |
| Cc1ccc(SC(=O)c2c(C)noc2-c2cc(C)on2)cc1 | 14.1 µM [falling, partial curve, poor fit] | 12.6 µM [rising, partial curve, poor fit] |
| Cc1ccccc1Nc1c([N+](=O)[O-])ccc2nonc12 | 35.5 µM [rising, single point] |  |
| C=CCn1c(SCC(=O)Nc2cccc(OC)c2)nnc1-c1cccnc1 | 7.31 µM [falling, partial curve, poor fit] |  |
| Cc1oc(-c2ccc(-c3ccccc3)cc2)nc1CN(CCO)C(C)C | 0.251 µM [falling, full curve] |  |
| Cc1cccc(/C=N/NC(=O)c2ccc(Br)cc2)c1 | 4.61 µM [rising, single point] |  |
| Cc1ccc(-c2nnc(Cc3ccc([N+](=O)[O-])cc3)o2)cc1 | 0.316 µM [falling, full curve, poor fit] |  |
| O=C(Nc1cccc(-c2nc3cccnc3s2)c1)C1c2ccccc2Oc2ccccc21 | 18.4 µM [rising, single point] | 20.6 µM [falling, single point] |
| Cc1nc(CNS(=O)(=O)c2cc(C)c(C)cc2C)cs1 | 23.1 µM [rising, single point] |  |
| O=C(NCc1ccc2c(c1)OCO2)c1cc2ncc(Br)cn2n1 | 5.17 µM [falling, single point] |  |
| COc1ccc(NCc2n[nH]c(=O)c3ccccc23)cc1 | 3.26 µM [rising, full curve, poor fit] |  |
| Cc1[nH]c(=O)c(C#N)c(C)c1Cc1ccc(Cl)cc1Cl | 0.562 µM [falling, full curve] |  |

| SMILES | AC50 [1] | AC50 [2] |
| --- | --- | --- |
| CCOc1ccc(CCNC(=O)CCCN2C(=O)c3ccccc3C2=O)cc1OCC | 35.5 µM [rising, single point] |  |
| NC(=S)Nc1ncc(CCN2CCOCC2)c(-c2ccc(F)cc2)n1 | 1.12 µM [rising, full curve, poor fit] |  |
| COc1ccc(CCNc2ncnc3c2nnn3C)cc1OC | 11.2 µM [falling, partial curve] |  |
| O=C(Nc1nccc(-c2cccs2)n1)c1ccccc1Cl | 7.94 µM [falling, partial curve] |  |
| O=C(Nc1cc(SCCO)cc([N+](=O)[O-])c1)c1ccc(Br)o1 | 10.3 µM [falling, partial curve, poor fit] |  |
| O=C(NCC(O)c1ccc([N+](=O)[O-])cc1)c1cccc(S(=O)(=O)N2CCCC2)c1 (stereo not drawn) | 6.31 µM [rising, single point] |  |
| Cc1ccc(N2C(=O)/C(=C/c3cccnc3)SC2=S)cc1 | 2.91 µM [rising, full curve, poor fit] |  |
| O=C(Nc1ccccc1Oc1ccccc1)c1cccs1 | 35.5 µM [rising, single point] |  |
| Cc1cc(C)n(CCO)c(=O)n1 | 29.1 µM [rising, single point] | 18.4 µM [falling, partial curve, poor fit] |
| Cn1cnc2c1c(=O)n(Cc1cccc(Br)c1)c(=O)n2C | 25.9 µM [falling, single point] |  |
| COc1cccc(OCCNc2cc(N3CCOCC3)ccc2[N+](=O)[O-])c1 |  | 16.4 µM [falling, partial curve, poor fit] |
| CC(C)Oc1snc(Cl)c1C(N)=O | 18.4 µM [rising, single point] |  |
| CCOC(=O)c1c(-c2ccccc2)cn2c(C)cc(C)nc12 | 14.1 µM [falling, single point] |  |
| Cc1cccc(C2=NNC(=O)C(c3ccc(Cl)cc3)C2)c1 (stereo not drawn) | 20 µM [falling, single point] |  |
| COc1ccc(OCC(=O)Nc2cc(-c3nn(C)c(=O)c4ccccc34)ccc2N2CCOCC2)cc1 | 4.47 µM [rising, single point] |  |
| COc1ccc(NC(=O)c2cc(Br)ccc2Cl)c(OC)c1 | 18.4 µM [rising, partial curve, poor fit] |  |
| COc1ccc2[nH]c(CN3CCN(CC(C)C)C(CCO)C3)c(C)c2c1 (stereo not drawn) | 0.355 µM [falling, full curve, poor fit] |  |
| Brc1ccc(-c2nnc3sc(CN4CCC5(CC4)OCCO5)cn23)cc1 | 4.61 µM [rising, full curve] |  |
| CC1CCCN(C(=O)C2(NC(=O)Nc3cccc(F)c3)CCCCC2)C1 (stereo not drawn) | 17.8 µM [rising, single point] |  |
| O=C(NCCO)c1cccc(Nc2nc(-c3ccccc3)c3cc(Cl)ccc3n2)c1 | 0.316 µM [falling, full curve, poor fit] |  |
| COC(=O)c1ccc(COC(=O)CNC(=O)c2ccco2)cc1 | 1.64 µM [rising, partial curve, poor fit] |  |
| O=C1SC(SC(=Nc2ccccc2)Nc2ccccc2)C(=O)N1c1ccccc1 (stereo not drawn) | 5.17 µM [falling, partial curve] |  |

| SMILES | AC50 [1] | AC50 [2] |
| --- | --- | --- |
| CC(OC(=O)c1ccco1)C(=O)Nc1ccc(Cl)cn1 (stereo not drawn) | 12.6 µM [falling, partial curve, poor fit] |  |
| O=[N+]([O-])c1ccc(N/N=C2\CC3CC=CC23)cc1 (stereo not drawn) | 35.5 µM [falling, single point] |  |
| c1ccc(-c2nc3ccccc3[nH]2)nc1 | 13 µM [falling, single point] |  |
| COc1cc(/C(C#N)=C/c2ccccc2)c([N+](=O)[O-])cc1OC | 29.1 µM [falling, partial curve, poor fit] |  |
| O=C(Nc1ccc(Br)c(Cl)c1)c1ccco1 | 5.17 µM [rising, single point] |  |
| C/C(Cn1nnc2ccccc21)=N\NC(=O)c1cccc(Br)c1 | 4.11 µM [falling, partial curve, poor fit] |  |
| CCN1C(=NCc2ccco2)N[C@@H](c2cccc(F)c2)C(C(=O)OC)=C1C | 17.8 µM [falling, single point] |  |
| COc1cc(C2C3=C(CC(C)(C)CC3=O)OC(N)=C2[N+](=O)[O-])ccc1O (stereo not drawn) | 29.1 µM [falling, single point] |  |
| CCN(CC(=O)NC1CCCC1)S(=O)(=O)c1ccc(C)cc1 | 0.103 µM [rising, full curve, poor fit] |  |
| O=C(CCNC(=O)c1ccc([N+](=O)[O-])cc1)Oc1ccc(F)c(F)c1 | 10.3 µM [falling, single point] |  |
| CSc1cccc(NC(=O)COc2ccccc2)c1 | 1.58 µM [rising, full curve, poor fit] |  |
| COc1ccc(NC(=O)COc2ccccc2C)cc1S(=O)(=O)N1CCCCC1 | 23.1 µM [falling, partial curve, poor fit] |  |
| Cc1cc(=O)[nH]c(SCC(=O)N2CCc3ccccc3C2)n1 | 2.91 µM [rising, single point] |  |
| CC1(c2ccccc2)CC(C)(C)N(C(N)=O)c2ccccc21 (stereo not drawn) | 12.6 µM [rising, partial curve, poor fit] |  |
| CC1(c2ccccc2)CC(C)(C)N(C(=O)C2CCCO2)c2ccccc21 (stereo not drawn) | 20.6 µM [rising, single point] |  |
| CC12/C(=N/O)C3C4CC5C3/C(=N/O)C1C5C42 (stereo not drawn) | 5.17 µM [rising, single point] |  |
| Cc1ccc(O)c(NC(=S)NC(=O)/C=C/c2ccco2)c1 | 11.2 µM [falling, partial curve] |  |
| COc1ccc2nc(SCC(=O)NCCc3ccccc3)[nH]c2c1 | 3.55 µM [rising, single point] |  |
| CCOc1ncccc1C(=O)OCC(=O)Nc1cc(S(=O)(=O)N2CCOCC2)ccc1Cl | 29.1 µM [falling, single point] |  |
| CC1=CC2=NC(=O)CC(C)(C(=O)N(CC(=O)NC(C)(C)C)Cc3ccccc3)N2C=C1 (stereo not drawn) | 31.6 µM [rising, single point] |  |
| COc1ccc(CSc2nnnn2C)cc1[N+](=O)[O-] | 3.16 µM [rising, partial curve, poor fit] |  |

Reference: PubChem BioAssay AID493014 (National Center for Advancing Translational Sciences (NCATS), 2011)
